{"source": "PubChem BioAssay AID624297", "about": "(National Center for Advancing Translational Sciences (NCATS), 2012)", "note": "Out of some 340,000 compounds screened, about 6,200 (1.8%) were called active. This list was built around the results that the source calls inconclusive (neither active nor inactive); the mix of calls is not that of the screen. Calls follow the shape of the dose curve; as a rule, active = well fitted activation curve with a large enough effect; inconclusive = small, poorly fitted or top-dose-only effect; inactive = no such curve, though single readings can be large or run the other way. Potencies of inconclusive entries are doubtful fits and often do not repeat. Potency is read from the fitted curve at half-maximal effect."}
{"assay": "A quantitative high throughput screen for small molecules that induce DNA re-replication in SW480 colon adenocarcinoma cells; also: nearly all actives have a fitted effect of over 55% in size; as to re-replication activation: % of control where 0% means no effect.", "conditions": "Hoechst DNA content imaging, 48 h; re-replication activation: at 46.1 µM (top of the series) unless noted", "how_it_was_run": "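250 cells/well; 23 nL cpd via pin tool; 48 hr, 37 C, 5% CO2; Hoechst 40 min; imager read of total nuclear intensity, ex 405/em 500-530 nm.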"}
{"compound": "COc1cc(C(=O)N(C)CC2CCN(CCc3cccc(C(F)(F)F)c3)CC2)ccc1C", "Potency": "inconclusive: 29.1 µM [activator, single point]"}
{"compound": "COc1ccc(NC(=O)C(C)Sc2ccccc2)cc1", "note": "(stereo not given)", "re-replication activation": "inactive: -1.2%"}
{"compound": "CN(CCCOc1ccccc1F)Cc1ccccc1", "Potency": "inconclusive: 0.231 µM [activator, full curve, poor fit]"}
{"compound": "Cc1cc2c(NCc3ccccc3)ncnc2s1", "re-replication activation": "inactive: 0.619%"}
{"compound": "CC(C)c1ccc(Nc2nc(NCc3ccco3)nc(N3CCOCC3)n2)cc1", "Potency": "inconclusive: 18.4 µM [activator, single point]"}
{"compound": "CN1C(=O)C(O)(CC(=O)c2ccncc2)c2ccccc21", "note": "(stereo not given)", "Potency": "inconclusive: 11.2 µM [activator, partial curve, poor fit]"}
{"compound": "COc1ccccc1C(=O)NC(=Nc1nc2ccccc2o1)NC(=O)c1ccccc1OC", "Potency": "inconclusive: 29.1 µM [activator, single point]"}
{"compound": "CC(C)(C)C(Cn1ccnc1)NC(=O)c1ccc2nc(C3CC3)oc2c1", "note": "(stereo not given)", "re-replication activation": "inactive: -21.1%"}
{"compound": "CC(C)Cn1c(N)c(C(=O)COC(=O)/C=C/c2ccccc2)c(=O)n(C)c1=O", "re-replication activation": "inactive: -4.17%"}
{"compound": "CC(C#N)Sc1ccc(S(=O)(=O)N(C)C2CCCCC2)cn1", "note": "(stereo not given)", "re-replication activation": "inactive: -4.32%"}
{"compound": "CC[C@]12c3[nH]c4ccc(Cl)cc4c3CCN1C(=O)[C@@H](CC(=O)NCc1ccc(OC)c(OC)c1)C[C@@H]2C(=O)N1CCN(C(=O)c2ccco2)CC1", "Potency": "inconclusive: 3.26 µM [activator, single point]"}
{"compound": "CC(C)/C=N/NC(=O)c1ccc(Cl)cc1", "Potency": "inconclusive: 29.1 µM [activator, single point]"}
{"compound": "CNC(=O)/C(C#N)=C/c1c(N2CC(C)OC(C)C2)nc2ccccn2c1=O", "note": "(stereo not given)", "Potency": "inconclusive: 17.8 µM [activator, partial curve, poor fit]"}
{"compound": "CSCCC(NC(=O)/C(=C/c1ccco1)NC(=O)c1ccco1)C(=O)O", "note": "(stereo not given)", "Potency": "inconclusive: 0.13 µM [activator, full curve, poor fit]"}
{"compound": "CCCOC(=O)Nc1nc2ccccc2o1", "re-replication activation": "inactive: -20.8%"}
{"compound": "CCN(CC)c1ccc(-n2cc3c(=O)n(C)c(=O)n(C)c3c2)cc1", "Potency": "inconclusive: 6.51 µM [activator, single point]"}
{"compound": "Cc1cc2c(cc1C)C(c1ccccc1Br)CC(=O)N2", "note": "(stereo not given)", "Potency": "inconclusive: 29.1 µM [activator, partial curve, poor fit]"}
{"compound": "C=C1c2cc3c(cc2NC(=S)N1Cc1ccccc1)OCO3", "Potency": "inconclusive: 14.6 µM [activator, single point]"}
{"compound": "O=C(CN1CCCCCC1)Nc1cc(C(F)(F)F)ccc1Cl", "re-replication activation": "inactive: -7.51%"}
{"compound": "Cc1ccc(S(=O)(=O)N2CCN(CCNC(=O)C(=O)NCc3ccccc3)CC2)cc1", "Potency": "inconclusive: 29.1 µM [activator, single point]"}
